The whole screen tested about 390,000 compounds, of which about 4,000 (1%) were called active. Inconclusive results, whose numbers are uncertain, are shown with a selection of clear calls. The call rests on the fitted dose curve; in most records, active means well fitted inhibition curve with a large enough effect; inconclusive means small, poorly fitted or top-dose-only effect, or another doubt; inactive means no such curve, though single readings can be large or run the other way. Potencies beside an inconclusive call are fits to weak or partial responses and may not hold up.
Molecular target: DNA polymerase iota (Homo sapiens) (UniProt Q9UNA4)
Experiment: qHTS for Inhibitors of Polymerase Iota
Settings: Pol iota fluorescent replication assay, 10 min; series mostly up to 115 µM
Outline: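 Fluorescent replication assay read twice, at 0 min and 10 min after adding 50 nM (final) substrate. Enzyme (10 nM) and compounds were first incubated 15 min at room temperature; enzyme-free buffer wells were negative controls.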
Potency means the concentration at half of the fitted maximal effect.

Protein sequences, listed by entry. Tags and fused reporters are not part of them. Lines headed by an entry give the natural chain unless they say otherwise; changes in a name come on top.
UniProt Q9UNA4: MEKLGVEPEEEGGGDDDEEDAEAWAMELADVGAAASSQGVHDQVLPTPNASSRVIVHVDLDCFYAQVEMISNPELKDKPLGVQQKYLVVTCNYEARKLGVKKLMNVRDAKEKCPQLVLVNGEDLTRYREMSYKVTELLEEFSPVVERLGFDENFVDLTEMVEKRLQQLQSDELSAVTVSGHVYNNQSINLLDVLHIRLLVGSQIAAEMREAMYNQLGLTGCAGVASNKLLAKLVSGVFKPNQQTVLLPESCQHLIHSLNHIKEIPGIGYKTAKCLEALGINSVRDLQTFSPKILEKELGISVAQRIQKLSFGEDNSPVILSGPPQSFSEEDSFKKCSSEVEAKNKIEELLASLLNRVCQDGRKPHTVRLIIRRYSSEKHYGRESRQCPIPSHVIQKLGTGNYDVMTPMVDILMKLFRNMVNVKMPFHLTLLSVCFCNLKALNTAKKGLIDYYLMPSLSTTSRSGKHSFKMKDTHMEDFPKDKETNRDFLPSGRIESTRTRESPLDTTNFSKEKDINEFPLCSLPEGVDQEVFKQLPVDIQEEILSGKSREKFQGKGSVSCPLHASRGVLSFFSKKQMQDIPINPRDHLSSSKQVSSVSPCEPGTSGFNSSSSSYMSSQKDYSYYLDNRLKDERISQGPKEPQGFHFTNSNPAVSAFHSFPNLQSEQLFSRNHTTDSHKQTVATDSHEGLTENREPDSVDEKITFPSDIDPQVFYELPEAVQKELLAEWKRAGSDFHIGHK

Potency, inactive:
O=C(CCCCCNc1nc(=S)[nH]c2ccccc12)NCCC1=CCCCC1
COc1ccccc1NC(=S)NC1CCC(CC2CCC(NC(=S)Nc3ccccc3OC)CC2)CC1 (centres undefined)
N#Cc1nc(/C=C/c2ccc(F)cc2)oc1N1CCN(c2ccccc2)CC1
Cc1cccc(OC(=O)c2cc(-c3ccc4c(c3)OCCO4)on2)c1
COc1cccc(-n2nnc3c(=O)n(CC(=O)Nc4ccc(C)cc4)cnc32)c1
O=c1[nH]c2ccc(NCc3ccccc3OCc3ccc(Cl)cc3)cc2[nH]1
O=C(O)Cn1cnc2scc(-c3ccccc3)c2c1=O
COc1ccc(N2CCN(C(=O)c3ccc4c(c3)N(Cc3ccc(F)cc3)C(=O)c3ccccc3S4=O)CC2)cc1 (centres undefined)
Cc1ccc(C)c(-n2c(CCC(=O)O)ccc2-c2ccc(Cl)cc2)c1
COc1cccc(CNC(=O)Cc2ccc(NC(=O)N3CCCCc4ccccc43)cc2)c1OC
O=C(COC(=O)c1cc(=O)[nH]c2ccccc12)NCc1cccs1
Cc1ccc(/C=C/c2onc(C)c2S(=O)(=O)N2CCC(C(=O)NCc3ccc(C)o3)CC2)cc1
CN(C)c1ccc(/C=C/c2cc(N(C)C)nc3ccccc23)cc1
Oc1cccnc1CCc1ccccc1
CSc1cccc(NC(=O)Cn2c3ncccc3c(=O)n2-c2ccc(C)cc2)c1
O=C(CCCc1c[nH]c2ccccc12)NCCc1c[nH]c2ccccc12

Potency, inconclusive:
CCN(CC)CCCNc1nc2cc(OC)c(OC)cc2c2nc(-c3cccnc3)nn12 3.16 µM [inhibitor, full curve, poor fit]
CC(C)N1C(=O)S/C(=C\c2ccc(-c3ccc(Cl)c(C(=O)O)c3)o2)C1=O 22.4 µM [inhibitor, partial curve, poor fit]
COc1ccc(CC(=O)NC(C)c2nnc(SCC(=O)c3ccc(Br)cc3)n2C)cc1 (centres undefined) 7.08 µM [inhibitor, partial curve, poor fit]
C=CCN1C(=O)C(Cc2ccc(Br)cc2)S/C1=N\N=C\c1ccco1 (centres undefined) 28.2 µM [inhibitor, single point]
O=C(NNc1cccc(Cl)n1)C1CC1 89.1 µM [inhibitor, single point]
CN(c1ccccc1)S(=O)(=O)c1ccc(C(=O)OCC(=O)NCc2ccco2)cc1 7.08 µM [inhibitor, full curve, poor fit]
Cc1cc(NCCN2CCOCC2)n2c(nc3ccccc32)c1C#N 44.7 µM [inhibitor, partial curve, poor fit]
Cc1cc(C)nc(NC(=O)C(C)N2C(=O)c3ccccc3C2=O)n1 (centres undefined) 126 µM [inhibitor, partial curve, poor fit]
COc1ccc(-c2nnc(SCC(=O)Nc3sc4c(c3C#N)CCC4)n2CC2CCCO2)cc1 (centres undefined) 8.91 µM [inhibitor, full curve, poor fit]
Cc1nc(C)n(CC(=O)N2CCCC(C(=O)c3ccc(Cl)cc3C)C2)n1 (centres undefined) 11.2 µM [inhibitor, full curve, poor fit]
Cc1sc2nc(SCC(=O)N3CCCCC3)[nH]c(=O)c2c1C 39.8 µM [inhibitor, partial curve, poor fit]
O=C(O)c1ccc(N/N=C2/CCSc3ccc(F)cc32)cc1 35.5 µM [inhibitor, single point]
CNC(=O)C1CCC(Cn2c(=O)[nH]c3ccsc3c2=O)CC1 (centres undefined) 56.2 µM [inhibitor, partial curve, poor fit]
C=CCN(C(=O)Nc1ccc(Cl)cc1)C1CC(=O)N(c2ccc(OC)cc2)C1=O (centres undefined) 56.2 µM [inhibitor, partial curve, poor fit]
COc1ccc(CCNC(=O)COC(=O)c2ccc([N+](=O)[O-])o2)cc1 17.8 µM [inhibitor, partial curve, poor fit]
Cc1cc(=O)[nH]c2c1cnn2C(C)c1ccccc1 (centres undefined) 25.1 µM [inhibitor, single point]
COc1cccc(N=c2oc3ccccc3cc2-c2nc3ccccc3[nH]2)c1 100 µM [inhibitor, single point]
Cc1[nH][nH]c(=O)c1C(c1cc([N+](=O)[O-])ccc1O)c1c(C)[nH][nH]c1=O 39.8 µM [inhibitor, single point]
COc1ccc(S(=O)(=O)NC2(C(F)(F)F)N=C3SCCN3C2=O)cc1 (centres undefined) 35.5 µM [inhibitor, partial curve, poor fit]
COc1ccc(Cc2nnc(SCC(=O)Nc3ccc(C)c(Cl)c3)[nH]c2=O)cc1 22.4 µM [inhibitor, full curve, poor fit]
O=C(COC(=O)c1cncc(Br)c1)Nc1nnc(-c2ccccc2)o1 20 µM [inhibitor, full curve]
COc1ccccc1NC(=O)c1c(NCc2ccc(C)o2)sc2c1CCC(C)C2 (centres undefined) 39.8 µM [inhibitor, single point]
CC(=O)C1=C(C)NC(SCC(=O)c2ccccc2)=C(C#N)C1CC(C)C (centres undefined) 11.2 µM [inhibitor, partial curve, poor fit]
O=c1cc(/C=C/c2ccccc2)oc2c1ccc1ccccc12 22.4 µM [inhibitor, partial curve, poor fit]
CC(C(=O)Nc1cc(C(F)(F)F)ccc1Cl)n1nnc2sc3c(c2c1=O)CCCC3 (centres undefined) 14.1 µM [inhibitor, partial curve, poor fit]
Cc1ccsc1CNc1ncnc2ccc(-c3c(C)noc3C)cc12 17.8 µM [inhibitor, single point]
CCOc1ccc(-c2nc(SCC(=O)Nc3ccc(C)c(C)c3)n3[nH]c(=O)cc3n2)cc1 79.4 µM [inhibitor, single point]
NS(=O)(=O)c1ccc2nc(NC(=O)C3CCCO3)sc2c1 (centres undefined) 112 µM [inhibitor, partial curve, poor fit]
COC(=O)c1ccccc1NC(=O)COC(C)=O 15.8 µM [inhibitor, full curve, poor fit]
O=C(N/N=C/c1cc(Br)c(Br)o1)c1cc2ccccc2o1 22.4 µM [inhibitor, single point]
COc1ccc(C2C(O)C(c3c[nH]c4ccccc34)=NN2C(=O)CCl)cc1 (centres undefined) 15.8 µM [inhibitor, full curve, poor fit]
O=C1Cc2ccccc2C(=O)N1c1cccc(Cl)c1 22.4 µM [inhibitor, single point]
Cc1c(/C=N/NC(=O)C(NC(=O)c2ccc3c(c2)OCO3)C(C)C)c2ccccc2n1C (centres undefined) 89.1 µM [inhibitor, partial curve, poor fit]
CCCCCC(O)(c1ccccc1)C(CN1CCOCC1)c1ccccc1 (centres undefined) 56.2 µM [inhibitor, partial curve, poor fit]
C=CCOc1ccc(C2OC34CCCCC3C(C#N)(C#N)C2(C#N)C(=N)O4)cc1 (centres undefined) 39.8 µM [inhibitor, single point]
COC(=O)c1ccc(CSc2ncnc3c2sc2nc(N4CCOCC4)c4c(c23)CCCC4)o1 100 µM [inhibitor, partial curve, poor fit]
Cc1ccc(CNC(=O)c2cc3c(C)nc4ccccc4c3o2)cc1 50.1 µM [inhibitor, single point]
Cc1cc(C)c(NC(=O)c2cc3sc(Cl)cc3n2C)c(C)c1 89.1 µM [inhibitor, single point]
C[n+]1cccc(O)c1SCc1ccccc1 20 µM [inhibitor, partial curve, poor fit]
CCCOc1ccc2oc(=O)c3c(c2c1)CCCN3C(=O)CN1CCN(c2ncccn2)CC1 2.82 µM [inhibitor, full curve, poor fit]
O=C(Nc1cccc(C(=O)O)c1)/C(=C\c1ccco1)NC(=O)c1ccccc1 22.4 µM [inhibitor, partial curve, poor fit]
COCCCNC(=O)c1cc(C(=O)c2ccccc2Br)c[nH]1 89.1 µM [inhibitor, single point]
O=C(c1ccccc1F)N1CCN(S(=O)(=O)c2ccc(S(=O)(=O)N3CCCCC3)cc2)CC1 100 µM [inhibitor, single point]
C/C(=N\NC(=O)c1ccc(CN2CCOCC2)cc1)c1ccc(NC(=O)c2ccccc2)cc1 89.1 µM [inhibitor, single point]
COC(=O)c1ccccc1NC(=O)/C=N/O 89.1 µM [inhibitor, single point]
CCOc1ccc(NS(=O)(=O)c2ccc3[nH]cc(C(=O)N(C)Cc4ccccc4)c(=O)c3c2)cc1 100 µM [inhibitor, single point]
O=C(CN1C(=O)CCSc2ccc(S(=O)(=O)N3CCOCC3)cc21)Nc1ccccc1Cl 50.1 µM [inhibitor, partial curve, poor fit]

Potency, active:
COc1cc(SC#N)ccc1N=Cc1c(C)[nH]n(-c2cccc3ccccc23)c1=O 12.6 µM
